For two molecules, log2FC results are on record in ChEMBL document CHEMBL5674883, “The Heterochromatin Landscape in Migrating Cells and the Importance of H3K27me3 for Associated Transcriptome Alterations” (Cells, 2018).

Amino acid sequences for entries named in this document (tags omitted).
UniProt Q61188, whole entry: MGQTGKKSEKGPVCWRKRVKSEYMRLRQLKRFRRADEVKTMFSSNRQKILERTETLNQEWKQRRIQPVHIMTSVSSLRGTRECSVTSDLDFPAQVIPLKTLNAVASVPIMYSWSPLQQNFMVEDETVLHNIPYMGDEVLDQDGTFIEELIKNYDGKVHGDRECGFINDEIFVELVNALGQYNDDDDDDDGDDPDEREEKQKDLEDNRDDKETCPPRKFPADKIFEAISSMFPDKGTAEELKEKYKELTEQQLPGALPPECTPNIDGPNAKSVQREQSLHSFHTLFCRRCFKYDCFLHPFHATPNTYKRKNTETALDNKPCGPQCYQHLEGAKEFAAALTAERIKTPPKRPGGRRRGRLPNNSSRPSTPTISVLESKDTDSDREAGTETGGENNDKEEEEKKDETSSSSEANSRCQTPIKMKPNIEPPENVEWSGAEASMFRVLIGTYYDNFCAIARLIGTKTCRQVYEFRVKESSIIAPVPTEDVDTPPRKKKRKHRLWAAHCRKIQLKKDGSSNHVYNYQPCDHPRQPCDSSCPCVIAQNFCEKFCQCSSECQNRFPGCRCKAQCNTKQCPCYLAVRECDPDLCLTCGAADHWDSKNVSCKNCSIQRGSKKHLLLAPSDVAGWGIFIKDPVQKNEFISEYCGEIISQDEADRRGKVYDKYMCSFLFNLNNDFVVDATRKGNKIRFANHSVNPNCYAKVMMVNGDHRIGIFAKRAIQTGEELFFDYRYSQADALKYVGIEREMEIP

Molecules are shown by their SMILES. This continues a long series; more values of the same kind are listed elsewhere.

Holding throughout (type): cell-based
The target in test [1] is T1, RNA polymerase II (Mus musculus) (UniProt P08775+Q8CFI7+P97760+A0A3Q4L2S8+Q80UW8+P61219+P62488+Q923G2+P60898+O08740+Q63871+P62876). Description: Inhibition of RNA polymerase II in mouse B16-F1 migrating cells assessed as fold change in 2610306M01Rik-RNA stability at 0.1 mM measured by ChIP-seq analysis relative to control cells.
Test [2] concerns the target T1, RNA polymerase II (Mus musculus). Put plainly: Inhibition of RNA polymerase II in mouse B16-F1 migrating cells assessed as fold change in Kdelr3-RNA stability at 0.1 mM measured by ChIP-seq analysis relative to control cells.
Test [3] shares this target. Description: Inhibition of RNA polymerase II in mouse B16-F1 migrating cells assessed as fold change in Tom1-RNA stability at 0.1 mM measured by ChIP-seq analysis relative to control cells.
The target is the same in test [4]. Put plainly: Inhibition of RNA polymerase II in mouse B16-F1 migrating cells assessed as fold change in Dph3-RNA stability at 0.1 mM measured by ChIP-seq analysis relative to control cells.
The target is the same in test [5]. Description: Inhibition of RNA polymerase II in mouse B16-F1 migrating cells assessed as fold change in Pkig-RNA stability at 0.1 mM measured by ChIP-seq analysis relative to control cells.
The target is the same in test [6]. Description: Inhibition of RNA polymerase II in mouse B16-F1 migrating cells assessed as fold change in Pih1d1-RNA stability at 0.1 mM measured by ChIP-seq analysis relative to control cells.
For test [7] the target is unchanged. Description: Inhibition of RNA polymerase II in mouse B16-F1 migrating cells assessed as fold change in Dpy19l1-RNA stability at 0.1 mM measured by ChIP-seq analysis relative to control cells.
Test [8] shares this target. Description: Inhibition of RNA polymerase II in mouse B16-F1 migrating cells assessed as fold change in Rassf3-RNA stability at 0.1 mM measured by ChIP-seq analysis relative to control cells.
The target is the same in test [9]. Description: Inhibition of RNA polymerase II in mouse B16-F1 migrating cells assessed as fold change in Azi2-RNA stability at 0.1 mM measured by ChIP-seq analysis relative to control cells.
Test [10] has the same target. Put plainly: Inhibition of RNA polymerase II in mouse B16-F1 migrating cells assessed as fold change in Bzw1-RNA stability at 0.1 mM measured by ChIP-seq analysis relative to control cells.
Test [11] shares this target. Description: Inhibition of RNA polymerase II in mouse B16-F1 migrating cells assessed as fold change in Vps54-RNA stability at 0.1 mM measured by ChIP-seq analysis relative to control cells.
Test [12] has the same target. Put plainly: Inhibition of RNA polymerase II in mouse B16-F1 migrating cells assessed as fold change in Pla2g4a-RNA stability at 0.1 mM measured by ChIP-seq analysis relative to control cells.
For test [13] the target is unchanged. Put plainly: Inhibition of RNA polymerase II in mouse B16-F1 migrating cells assessed as fold change in Ckap5-RNA stability at 0.1 mM measured by ChIP-seq analysis relative to control cells.
For test [14] the target is unchanged. Put plainly: Inhibition of RNA polymerase II in mouse B16-F1 migrating cells assessed as fold change in Exoc5-RNA stability at 0.1 mM measured by ChIP-seq analysis relative to control cells.
For test [15] the target is unchanged. Description: Inhibition of RNA polymerase II in mouse B16-F1 migrating cells assessed as fold change in Bard1-RNA stability at 0.1 mM measured by ChIP-seq analysis relative to control cells.
Test [16] shares this target. Description: Inhibition of RNA polymerase II in mouse B16-F1 migrating cells assessed as fold change in Zhx1-RNA stability at 0.1 mM measured by ChIP-seq analysis relative to control cells.
Test [17] shares this target. Description: Inhibition of RNA polymerase II in mouse B16-F1 migrating cells assessed as fold change in Nup153-RNA stability at 0.1 mM measured by ChIP-seq analysis relative to control cells.
The target is the same in test [18]. Put plainly: Inhibition of RNA polymerase II in mouse B16-F1 migrating cells assessed as fold change in Slmap-RNA stability at 0.1 mM measured by ChIP-seq analysis relative to control cells.
For test [19] the target is unchanged. Put plainly: Inhibition of RNA polymerase II in mouse B16-F1 migrating cells assessed as fold change in Carmil1-RNA stability at 0.1 mM measured by ChIP-seq analysis relative to control cells.
The target is the same in test [20]. Description: Inhibition of RNA polymerase II in mouse B16-F1 migrating cells assessed as fold change in Sclt1-RNA stability at 0.1 mM measured by ChIP-seq analysis relative to control cells.
For test [21], the target named is Histone-lysine N-methyltransferase EZH2 (Mus musculus) (UniProt Q61188). Description: Inhibition of EZH2 in mouse B16-F1 migrating cells assessed as fold change in H3K27me3-independent regulated Narf-mRNA expression at 3 uM measured by ChIP-seq analysis relative to control cells.
Test [22] has the same target. Put plainly: Inhibition of EZH2 in mouse B16-F1 migrating cells assessed as fold change in H3K27me3-buffered regulated Pkm-mRNA expression at 3 uM measured by ChIP-seq analysis relative to control cells.
For test [23] the target is unchanged. Description: Inhibition of EZH2 in mouse B16-F1 migrating cells assessed as fold change in H3K27me3-buffered regulated Gramd1a-mRNA expression at 3 uM measured by ChIP-seq analysis relative to control cells.
Test [24] has the same target. Description: Inhibition of EZH2 in mouse B16-F1 migrating cells assessed as fold change in H3K27me3-buffered regulated Ptch1-mRNA expression at 3 uM measured by ChIP-seq analysis relative to control cells.
Test [25] shares this target. Put plainly: Inhibition of EZH2 in mouse B16-F1 migrating cells assessed as fold change in H3K27me3-buffered regulated Galnt7-mRNA expression at 3 uM measured by ChIP-seq analysis relative to control cells.
Test [26] has the same target. Description: Inhibition of EZH2 in mouse B16-F1 migrating cells assessed as fold change in H3K27me3-buffered regulated Lpar6-mRNA expression at 3 uM measured by ChIP-seq analysis relative to control cells.
For test [27] the target is unchanged. Put plainly: Inhibition of EZH2 in mouse B16-F1 migrating cells assessed as fold change in H3K27me3-buffered regulated Arhgef39-mRNA expression at 3 uM measured by ChIP-seq analysis relative to control cells.
Test [28] shares this target. Put plainly: Inhibition of EZH2 in mouse B16-F1 migrating cells assessed as fold change in H3K27me3-buffered regulated Smc6-mRNA expression at 3 uM measured by ChIP-seq analysis relative to control cells.
Test [29] has the same target. Description: Inhibition of EZH2 in mouse B16-F1 migrating cells assessed as fold change in H3K27me3-buffered regulated Hmga2-mRNA expression at 3 uM measured by ChIP-seq analysis relative to control cells.
Test [30] shares this target. Put plainly: Inhibition of EZH2 in mouse B16-F1 migrating cells assessed as fold change in H3K27me3-buffered regulated Rgs16-mRNA expression at 3 uM measured by ChIP-seq analysis relative to control cells.

On to `OC[C@H]1O[C@@H](n2cnc3cc(Cl)c(Cl)cc32)[C@H](O)[C@@H]1O`, for which the log2FC turned out to be 0.9 in [1]; 0.83 in [2]; 0.5 in test [3]; 0.47 in [4]; 0.44 in [5]; 0.44 in [6]. Besides, the log2FC was -0.38 in test [7]; -0.41 in [8]; -0.46 in [9]; -0.46 in [10]; -0.46 in test [11]; -0.5 in [12]. Besides, the log2FC in test [13] was -0.53; in test [14] it was -0.56; in [15] it was -0.61; in test [16], -0.66; in [17] it was -0.69; in test [18], -0.69. Moreover, the log2FC in test [19] is -0.87; in test [20], -0.96.
Take `CCCc1cc(C)[nH]c(=O)c1CNC(=O)c1cc(-c2ccnc(N3CCN(C)CC3)c2)cc2c1cnn2C(C)C`: the log2FC in test [21] is -0.78; in test [22], 0.38; in test [23], -0.42; in test [24] it was -0.48; in [25] it was -0.49; in [26], -0.5. Also, the log2FC in [27] was -0.51; in test [28], -0.55; in test [29] it was -0.56; in test [30] it was -1.06.
